Measurements: the supplement of paper PMC7661543
Differences between knockout arms are mostly noise.

Tested on: SKBR3
Experiment: relative cell number vs DMSO control (72 h) (% of DMSO); higher = less growth inhibition (more cells)
Method: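 QMAP-Seq: a pool of 5 breast cancer cell lines (ZR-75-1, SKBR3, HCC-38, MDA-MB-231, BT-20), each carrying 12 doxycycline-inducible Cas9 sgRNA perturbations (11 knockouts plus non-targeting sgNT), was treated with compounds for 72 h at four 10-fold doses (10 nM-10 uM or 1 nM-1 uM range). Barcodes were amplified and sequenced, and cell number was interpolated from 293T spike-in standard curves. The result is expressed as % of the median of DMSO wells. Two biological replicates.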

Cc1ccccc1-n1c(Cn2cnc3c(N)ncnc32)nc2cccc(C)c2c1=O
Conditions	relative cell number
sgRNA knockout: sgATF3, 10 nM	130
sgRNA knockout: sgATF3, 100 nM	127
sgRNA knockout: sgATF3, 1000 nM	114
sgRNA knockout: sgATF3, 10000 nM	110
sgRNA knockout: sgATF4, 10 nM	89
sgRNA knockout: sgATF4, 100 nM	110
sgRNA knockout: sgATF4, 1000 nM	91.4
sgRNA knockout: sgATF4, 10000 nM	90.1
sgRNA knockout: sgATF6, 10 nM	75.5
sgRNA knockout: sgATF6, 100 nM	96.2
sgRNA knockout: sgATF6, 1000 nM	77.94
sgRNA knockout: sgATF6, 10000 nM	70.2
sgRNA knockout: sgATG7, 10 nM	110
sgRNA knockout: sgATG7, 100 nM	108
sgRNA knockout: sgATG7, 1000 nM	102
sgRNA knockout: sgATG7, 10000 nM	117
sgRNA knockout: sgERN1, 10 nM	111.9
sgRNA knockout: sgERN1, 100 nM	124.7
sgRNA knockout: sgERN1, 1000 nM	90.9
sgRNA knockout: sgERN1, 10000 nM	118
sgRNA knockout: sgHSF1, 10 nM	84.2
sgRNA knockout: sgHSF1, 100 nM	97.4
sgRNA knockout: sgHSF1, 1000 nM	87.23
sgRNA knockout: sgHSF1, 10000 nM	102
sgRNA knockout: sgHSF2, 10 nM	97.7
sgRNA knockout: sgHSF2, 100 nM	107
sgRNA knockout: sgHSF2, 1000 nM	82.5
sgRNA knockout: sgHSF2, 10000 nM	89.5
sgRNA knockout: sgKEAP1, 10 nM	78.1
sgRNA knockout: sgKEAP1, 100 nM	91.3
sgRNA knockout: sgKEAP1, 1000 nM	97
sgRNA knockout: sgKEAP1, 10000 nM	95.98
sgRNA knockout: sgNFE2L2, 10 nM	103
sgRNA knockout: sgNFE2L2, 100 nM	130
sgRNA knockout: sgNFE2L2, 1000 nM	83.3
sgRNA knockout: sgNFE2L2, 10000 nM	103.7
sgRNA knockout: sgSLC35F2, 10 nM	94.5
sgRNA knockout: sgSLC35F2, 100 nM	103
sgRNA knockout: sgSLC35F2, 1000 nM	81.6
sgRNA knockout: sgSLC35F2, 10000 nM	92.3
sgRNA knockout: sgXBP1, 10 nM	115
sgRNA knockout: sgXBP1, 100 nM	112
sgRNA knockout: sgXBP1, 1000 nM	104
sgRNA knockout: sgXBP1, 10000 nM	118

Cc1cnc(-c2cnc(NCCNc3ccc(C#N)cn3)nc2-c2ccc(Cl)cc2Cl)[nH]1
Conditions	relative cell number
sgRNA knockout: sgATF3, 10 nM	91.8
sgRNA knockout: sgATF3, 100 nM	112
sgRNA knockout: sgATF3, 1000 nM	87.1
sgRNA knockout: sgATF3, 10000 nM	72.3
sgRNA knockout: sgATF4, 10 nM	87.2
sgRNA knockout: sgATF4, 100 nM	87.5
sgRNA knockout: sgATF4, 1000 nM	82.5
sgRNA knockout: sgATF4, 10000 nM	65.3
sgRNA knockout: sgATF6, 10 nM	75.6
sgRNA knockout: sgATF6, 100 nM	86.8
sgRNA knockout: sgATF6, 1000 nM	86.5
sgRNA knockout: sgATF6, 10000 nM	56.9
sgRNA knockout: sgATG7, 10 nM	87.6
sgRNA knockout: sgATG7, 100 nM	65.3
sgRNA knockout: sgATG7, 1000 nM	78.6
sgRNA knockout: sgATG7, 10000 nM	64.9
sgRNA knockout: sgERN1, 10 nM	96.5
sgRNA knockout: sgERN1, 100 nM	101
sgRNA knockout: sgERN1, 1000 nM	108
sgRNA knockout: sgERN1, 10000 nM	82.4
sgRNA knockout: sgHSF1, 10 nM	94.1
sgRNA knockout: sgHSF1, 100 nM	86.6
sgRNA knockout: sgHSF1, 1000 nM	90.26
sgRNA knockout: sgHSF1, 10000 nM	69.4
sgRNA knockout: sgHSF2, 10 nM	82.9
sgRNA knockout: sgHSF2, 100 nM	102
sgRNA knockout: sgHSF2, 1000 nM	82.3
sgRNA knockout: sgHSF2, 10000 nM	66.8
sgRNA knockout: sgKEAP1, 10 nM	76
sgRNA knockout: sgKEAP1, 100 nM	82.4
sgRNA knockout: sgKEAP1, 1000 nM	84.8
sgRNA knockout: sgKEAP1, 10000 nM	67.5
sgRNA knockout: sgNFE2L2, 10 nM	101
sgRNA knockout: sgNFE2L2, 100 nM	73
sgRNA knockout: sgNFE2L2, 1000 nM	103
sgRNA knockout: sgNFE2L2, 10000 nM	80.2
sgRNA knockout: sgSLC35F2, 10 nM	95.7
sgRNA knockout: sgSLC35F2, 100 nM	81.5
sgRNA knockout: sgSLC35F2, 1000 nM	80
sgRNA knockout: sgSLC35F2, 10000 nM	71.4
sgRNA knockout: sgXBP1, 10 nM	113
sgRNA knockout: sgXBP1, 100 nM	124
sgRNA knockout: sgXBP1, 1000 nM	88.7
sgRNA knockout: sgXBP1, 10000 nM	77

Cc1cnc(Nc2ccc(OCCN3CCCC3)cc2)nc1Nc1cccc(S(=O)(=O)NC(C)(C)C)c1
Conditions	relative cell number
sgRNA knockout: sgATF3, 10 nM	91.9
sgRNA knockout: sgATF3, 100 nM	72
sgRNA knockout: sgATF3, 1000 nM	58.1
sgRNA knockout: sgATF3, 10000 nM	30.7
sgRNA knockout: sgATF4, 10 nM	84
sgRNA knockout: sgATF4, 100 nM	92.6
sgRNA knockout: sgATF4, 1000 nM	57.4
sgRNA knockout: sgATF4, 10000 nM	28.3
sgRNA knockout: sgATF6, 10 nM	85.5
sgRNA knockout: sgATF6, 100 nM	86.6
sgRNA knockout: sgATF6, 1000 nM	55.5
sgRNA knockout: sgATF6, 10000 nM	21.8
sgRNA knockout: sgATG7, 10 nM	86.9
sgRNA knockout: sgATG7, 100 nM	80.1
sgRNA knockout: sgATG7, 1000 nM	68.86
sgRNA knockout: sgATG7, 10000 nM	23.2
sgRNA knockout: sgERN1, 10 nM	97.8
sgRNA knockout: sgERN1, 100 nM	97.8
sgRNA knockout: sgERN1, 1000 nM	54.3
sgRNA knockout: sgERN1, 10000 nM	21.9
sgRNA knockout: sgHSF1, 10 nM	99.5
sgRNA knockout: sgHSF1, 100 nM	79.4
sgRNA knockout: sgHSF1, 1000 nM	62.2
sgRNA knockout: sgHSF1, 10000 nM	23.8
sgRNA knockout: sgHSF2, 10 nM	88
sgRNA knockout: sgHSF2, 100 nM	78.7
sgRNA knockout: sgHSF2, 1000 nM	57.4
sgRNA knockout: sgHSF2, 10000 nM	25.1
sgRNA knockout: sgKEAP1, 10 nM	84.3
sgRNA knockout: sgKEAP1, 100 nM	85.6
sgRNA knockout: sgKEAP1, 1000 nM	56.59
sgRNA knockout: sgKEAP1, 10000 nM	23.2
sgRNA knockout: sgNFE2L2, 10 nM	96.5
sgRNA knockout: sgNFE2L2, 100 nM	92
sgRNA knockout: sgNFE2L2, 1000 nM	58.3
sgRNA knockout: sgNFE2L2, 10000 nM	23.2
sgRNA knockout: sgSLC35F2, 10 nM	97.2
sgRNA knockout: sgSLC35F2, 100 nM	71.8
sgRNA knockout: sgSLC35F2, 1000 nM	59.7
sgRNA knockout: sgSLC35F2, 10000 nM	24.8
sgRNA knockout: sgXBP1, 10 nM	82.7
sgRNA knockout: sgXBP1, 100 nM	115
sgRNA knockout: sgXBP1, 1000 nM	43.6
sgRNA knockout: sgXBP1, 10000 nM	26.5
